Experimental data taken from PubChem BioAssay AID493014 (National Center for Advancing Translational Sciences (NCATS), 2011).
About 170 (0.05%) of roughly 340,000 compounds were called active. Inconclusive results, whose numbers are uncertain, are shown with a selection of clear calls. The call rests on the fitted dose curve; in most records, active means well fitted inhibition curve with a large enough effect in the signal ratio, with a control signal flat (not every such curve was filed as active); inconclusive means small, poorly fitted or top-dose-only effect, or effect the other way, or a change in a side signal; inactive means flat fitted curve, though single readings scatter; the % refers to the signal ratio. Potencies beside an inconclusive call are fits to weak or partial responses and may not hold up.

Assay: qHTS Assay to Find Inhibitors of Chronic Active B-Cell Receptor Signaling;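 on activity change, negative = inhibition: plate controls were basal doxycycline-induced cells for no effect and cells given 10 µM MG132 for full effect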
Settings: ABC-DLBCL IkBa-CBG/CBR reporter, luminescence ratio (green luciferase fused to IkBa over red control in TMD8 lymphoma cells), 4 h; activity change, negative = inhibition: at 46.1 µM (top of the series) unless noted
Method in brief: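 TMD8 human ABC-DLBCL cells with doxycycline-inducible IκBα–green luciferase fusion and unfused red luciferase, in 0.5% FBS medium; compounds up to 46 uM, 4 h at 37C. Green/red luminescence ratio, filter-overlap corrected, fitted to concentration-response curves.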
Potency means the concentration at half of the fitted maximal effect.

Row | SMILES | activity change, negative = inhibition | Potency
1 | COc1ccc(Cc2n[nH]c(=S)n2NC(=O)Nc2ccc(Cl)c(Cl)c2)cc1 | inconclusive: 1.39% | –
2 | O=C(O)c1ccc(N/N=C/c2cn(-c3ccccc3)nc2-c2cccs2)cc1 | – | inconclusive: 22.4 µM [falling, partial curve]
3 | C=CCSc1n[nH]c(-c2ccc(OCCCC)cc2)n1 | inconclusive: 6.03% | –
4 | Cc1cccn2c(=O)c(/C=C(\C#N)C(=O)NC3CCS(=O)(=O)C3)c(N3CC(C)OC(C)C3)nc12 (stereo not drawn) | inactive | –
5 | Cc1ccc(C)c(S(=O)(=O)NCCCN2CCOCC2)c1 | inactive | –
6 | Cc1cccn2c(=O)c3cc(C(=O)NCC4CCCO4)c(=N)n(Cc4cccnc4)c3nc12 (stereo not drawn) | inconclusive: -0.634% | –
7 | COc1ccc(C)cc1NC(=O)CCCN1C(=O)CCC1=O | inconclusive: 10.2% | –
8 | Cc1ccnc(N2CCC(C(=O)Nc3ccc4c(c3)OCO4)CC2)n1 | inactive | –
9 | CCc1nc2ccc(C(=O)O)cc2nc1CC | – | inconclusive: 4.61 µM [falling, partial curve]
10 | CSCC[C@H](NC(=O)c1ccco1)c1nnc2ccccn12 | inactive | –
11 | COCc1ccc(CN2CCCC(CO)(Cc3cccc(OC)c3)C2)o1 (stereo not drawn) | inactive | –
12 | COc1ccc(NC(=O)c2nc(S(=O)(=O)Cc3cccc(C)c3)ncc2Cl)c(OC)c1 | inconclusive: 1.78% | –
13 | COCC(C)N1CC(O)=C(c2nc(-c3ccc(Cl)cc3)cs2)C1=N (stereo not drawn) | inconclusive: -6.6% | –
14 | N=C1S/C(=C\c2ccco2)C(=O)N1c1ccc2c(c1)OCO2 | inconclusive: -13.7% | –
15 | C[C@H](N)C(=O)NC[C@H]1O[C@@H](n2cnc3c(N)ncnc32)[C@H](O)[C@@H]1O | inconclusive: -6.82% | –
16 | O=C(Nc1nnc(SCc2ccccc2F)s1)C1=COCCO1 | inconclusive: -1.89% | –
17 | CCn1cc(C(=O)N2CCCC2)c(=O)c2cc(S(=O)(=O)N3CC(C)CC(C)C3)ccc21 (stereo not drawn) | inconclusive: 2.75% | –
18 | CCc1ccc(/C=C/C(=O)c2c(C)cc(C)[nH]c2=O)cc1 | – | inconclusive: 18.4 µM [falling, partial curve, poor fit]
19 | CCN(CC(=O)Nc1c(F)cccc1F)C(=O)CSC(=S)N1CCCC1 | inactive | –
20 | O=C(Nc1ccc2c(c1)OCCO2)c1cc2ccccc2o1 | – | inconclusive: 35.5 µM [rising, single point]
21 | CCNC(=S)N/N=C/c1cccc(C)c1 | – | inconclusive: 23.1 µM [falling, single point]
22 | COc1ccc(NC(=S)Nc2cc(C)cc(C)n2)cc1OC | inconclusive: 22.6% | –
23 | Cn1c(Nc2ccccc2)nc2ccccc21 | inactive | –
24 | Cc1cccc(Nc2nc(N)c([N+](=O)[O-])c(N3CCCC(C)C3)n2)c1 (stereo not drawn) | inactive | –
25 | Fc1cccc(NC(=S)NCc2ccccc2Cl)c1 | inconclusive: 1.91% | –
26 | COc1ccc(-c2nc(C#N)c(NCc3cccnc3)o2)cc1OC | – | inconclusive: 10 µM [falling, partial curve]

Fetched by structure from the list above:
Row | SMILES | activity change, negative = inhibition | Potency
15 | C[C@H](N)C(=O)NC[C@H]1O[C@@H](n2cnc3c(N)ncnc32)[C@H](O)[C@@H]1O | inconclusive: -6.82% | –
21 | CCNC(=S)N/N=C/c1cccc(C)c1 | – | inconclusive: 23.1 µM [falling, single point]

(cont.)

Row | SMILES | activity change, negative = inhibition | Potency
27 | COC(=O)c1ccc(CNC(=O)c2ccc(OC)c(S(=O)(=O)NC3CCCC3)c2)cc1 | inconclusive: -7.55% | –
28 | CC(C)c1ccc(NC(=O)CN2C(=O)NC(Cc3c[nH]c4ccccc34)C2=O)cc1 (stereo not drawn) | inactive | –
29 | CC(C)(C)NC(=O)COC(=O)CCC(=O)c1ccc(F)cc1 | inconclusive: 4.36% | –
30 | COc1ccccc1CCC(=O)N(C)CC(=O)Nc1ccc(Cl)c(C(F)(F)F)c1 | inconclusive: 6.69% | –
31 | O=C(Nc1ccc(OC(F)(F)F)cc1)Nc1cccc([N+](=O)[O-])c1 | – | inconclusive: 16.4 µM [rising, single point]
32 | CSc1ccccc1NC(=O)c1cc(CC(C)C)on1 | – | inconclusive: 6.51 µM [falling, partial curve]
33 | N#Cc1cccc(S(=O)(=O)Nc2c(NC3CCCCC3)c3ccccc3oc2=O)c1 | – | inconclusive: 17.8 µM [falling, partial curve, poor fit]
34 | CCc1ccc(C(C(=O)NC2CCCCC2)N(C(=O)c2ccccn2)c2cccnc2)cc1 (stereo not drawn) | inconclusive: 4.75% | –
35 | O=C(Nc1nnc(-c2cccnc2)o1)c1cccc([N+](=O)[O-])c1 | – | inconclusive: 7.08 µM [falling, partial curve, poor fit]
36 | Cc1nn(-c2ccccc2)c(Cl)c1/C=N/NC(N)=O | – | inconclusive: 25.1 µM [falling, single point]
37 | COc1cc(C(=O)Nc2ccc3ccccc3c2)cc(OC)c1OC | – | inconclusive: 22.4 µM [falling, single point]
38 | NC(=O)NC(=O)COC(=O)c1cccnc1Nc1ccccc1F | – | inconclusive: 12.6 µM [falling, partial curve, poor fit]
39 | COc1ccc2cc3c(N)nn(C(=O)c4ccccc4Cl)c3nc2c1 | – | inconclusive: 7.08 µM [falling, partial curve]
40 | CCCc1ccc(C(=O)NNC(=O)c2ccc(Br)cc2)cc1 | inconclusive: 1.35% | –
41 | CC(=O)O[C@]1(C(C)=O)CC[C@H]2[C@@H]3C=C(Cl)C4=CC(=O)CC[C@]4(C)[C@H]3CC[C@@]21C | inactive | –
42 | O=C(CSc1nccc(-c2cccs2)n1)Nc1cccc(Cl)c1Cl | inactive | –
43 | O=C(CC1Nc2ccccc2NC1=O)NC1CCCCC1 (stereo not drawn) | – | inconclusive: 35.5 µM [falling, single point]
44 | COC(=O)c1ccc(NC(=O)c2ccc3c(c2)OCO3)cc1 | – | inconclusive: 0.366 µM [falling, full curve]
45 | COc1ccc(-c2sc3ccccc3c2-c2ccc(OCCN(C)C)cc2)cc1 | inactive | –
46 | CC(NC(=O)c1ccccc1Cl)C(=O)O (stereo not drawn) | inconclusive: 0.139% | –
47 | N#Cc1ccsc1NC(=O)COc1ccc(-c2nnco2)cc1 | – | inconclusive: 17.8 µM [falling, single point]
48 | CCCNC(=O)CNC(=S)N(Cc1cc(OC)c(OC)c(OC)c1)C1CCCC1 | inconclusive: -0.0781% | –
49 | CC1CC(=O)N(CC(=O)Nc2ccc3c(c2)OCO3)c2ccccc2S1 (stereo not drawn) | inconclusive: 0.0439% | –
50 | CC(=O)Oc1ccc(-c2cccc(C(=O)NCCO)c2)cc1 | – | inconclusive: 35.5 µM [falling, single point]
51 | CCCOc1ccc2nc(C)c(CCC)c(SC(=N)N)c2c1 | inconclusive: 16.2% | –
52 | O=C(CNC(=O)N1CC(=O)Nc2ccccc21)Nc1cc(Cl)ccc1Cl | inconclusive: 3.65% | –

Molecules shown so far containing a halogen (17):
Row | SMILES | activity change, negative = inhibition | Potency
1 | COc1ccc(Cc2n[nH]c(=S)n2NC(=O)Nc2ccc(Cl)c(Cl)c2)cc1 | inconclusive: 1.39% | –
12 | COc1ccc(NC(=O)c2nc(S(=O)(=O)Cc3cccc(C)c3)ncc2Cl)c(OC)c1 | inconclusive: 1.78% | –
13 | COCC(C)N1CC(O)=C(c2nc(-c3ccc(Cl)cc3)cs2)C1=N (stereo not drawn) | inconclusive: -6.6% | –
16 | O=C(Nc1nnc(SCc2ccccc2F)s1)C1=COCCO1 | inconclusive: -1.89% | –
19 | CCN(CC(=O)Nc1c(F)cccc1F)C(=O)CSC(=S)N1CCCC1 | inactive | –
25 | Fc1cccc(NC(=S)NCc2ccccc2Cl)c1 | inconclusive: 1.91% | –
29 | CC(C)(C)NC(=O)COC(=O)CCC(=O)c1ccc(F)cc1 | inconclusive: 4.36% | –
30 | COc1ccccc1CCC(=O)N(C)CC(=O)Nc1ccc(Cl)c(C(F)(F)F)c1 | inconclusive: 6.69% | –
31 | O=C(Nc1ccc(OC(F)(F)F)cc1)Nc1cccc([N+](=O)[O-])c1 | – | inconclusive: 16.4 µM [rising, single point]
36 | Cc1nn(-c2ccccc2)c(Cl)c1/C=N/NC(N)=O | – | inconclusive: 25.1 µM [falling, single point]
38 | NC(=O)NC(=O)COC(=O)c1cccnc1Nc1ccccc1F | – | inconclusive: 12.6 µM [falling, partial curve, poor fit]
39 | COc1ccc2cc3c(N)nn(C(=O)c4ccccc4Cl)c3nc2c1 | – | inconclusive: 7.08 µM [falling, partial curve]
40 | CCCc1ccc(C(=O)NNC(=O)c2ccc(Br)cc2)cc1 | inconclusive: 1.35% | –
41 | CC(=O)O[C@]1(C(C)=O)CC[C@H]2[C@@H]3C=C(Cl)C4=CC(=O)CC[C@]4(C)[C@H]3CC[C@@]21C | inactive | –
42 | O=C(CSc1nccc(-c2cccs2)n1)Nc1cccc(Cl)c1Cl | inactive | –
46 | CC(NC(=O)c1ccccc1Cl)C(=O)O (stereo not drawn) | inconclusive: 0.139% | –
52 | O=C(CNC(=O)N1CC(=O)Nc2ccccc21)Nc1cc(Cl)ccc1Cl | inconclusive: 3.65% | –

More entries follow.

Row | SMILES | activity change, negative = inhibition | Potency
53 | COCCCNc1nc(N)c([N+](=O)[O-])c(NCc2ccccc2)n1 | inconclusive: -4.19% | –
54 | O=C(COC(=O)c1cccc(NS(=O)(=O)c2ccc(F)c(F)c2)c1)NC(=O)NC1CCCC1 | inconclusive: -25.9% | –
55 | Cc1ccc(C)c(C(=O)COc2ccccc2[N+](=O)[O-])c1 | inconclusive: 1.5% | –
56 | O=C(c1cnc(N2CCN(c3ncccn3)CC2)c2ccccc12)N1CCN(c2ccccn2)CC1 | inconclusive: -8.51% | –
57 | CCOC(=O)c1c(NC(=O)C2COc3ccccc3O2)sc(C(C)=O)c1C (stereo not drawn) | inconclusive: 13.1% | –
58 | CCOC(=O)c1cc([N+](=O)[O-])c([N+](=O)[O-])cc1NC(C)=O | inconclusive: 1.96% | –
59 | CCOC(=O)C1CCN(C(c2ccccn2)c2c(C)[nH]c3ccccc23)CC1 (stereo not drawn) | inconclusive: 19.9% | –
60 | CC(C)(C)C1CCC(=NNC(=O)c2ccc(Br)o2)CC1 (stereo not drawn) | inconclusive: -16.7% | –
61 | COc1cccc(NC(=O)c2ccc3c(c2)N(CC(=O)N2CCCCC2)C(=O)C(C)(C)O3)c1 | inconclusive: 3.85% | –
62 | COc1ccc2c(c1)[nH]c1c(=O)n(CC3CCCO3)cnc12 (stereo not drawn) | inconclusive: 8.78% | –
63 | CCCN1CNC(=S)N(c2ccccc2C)C1 | – | inconclusive: 35.5 µM [falling, single point]
64 | CC(=O)c1c(C)[nH]c(C(=O)OCC(=O)Nc2ccc(Cl)c(S(=O)(=O)N(C)C)c2)c1C | – | inconclusive: 20 µM [falling, partial curve]
65 | CC1CC(C)CN(C(=O)C2CC(=O)N(c3ccc4c(c3)OCCO4)C2)C1 (stereo not drawn) | – | inconclusive: 3.66 µM [falling, partial curve, poor fit]
66 | CC(C)(C)C(=O)/C=C/Nc1ccccc1O | – | inconclusive: 13 µM [falling, partial curve]
67 | CCn1c(SCc2ccc(C#N)cc2)nnc1-c1ccc(S(=O)(=O)N2CCCCC2)cc1 | inconclusive: -0.139% | –
68 | Cc1cccc(S(=O)(=O)c2c(N)n(/N=C/c3cccnc3)c3nc4ccccc4nc23)c1 | inconclusive: 0.668% | –
69 | CNC(=S)N/N=C(\C)c1cccc(C(F)(F)F)c1 | – | inconclusive: 35.5 µM [falling, single point]
70 | Cc1ccc(C2=C/C(=C/c3cccs3)C(=O)O2)cc1 | – | inconclusive: 1.3 µM [falling, partial curve, poor fit]
71 | CCOc1ccc(N(CC(=O)Nc2cccc(Cl)c2)S(=O)(=O)c2c(C)noc2C)cc1 | inconclusive: 1.71% | –
72 | Cc1ccc2oc(=O)c3cc(C(=O)NCCCN4CCCCCC4)sc3c2c1 | inactive | –
73 | Fc1ccc(-n2ncc3c(Nc4ccc5c(c4)OCCO5)ncnc32)cc1 | inconclusive: -0.381% | –
74 | NC(=O)COc1ccc2cc(-c3ccccc3)c(=O)oc2c1 | – | inconclusive: 22.4 µM [falling, partial curve]
75 | CC(C)Cn1cnc2c1c(=O)n(CC(=O)Nc1ccc3c(c1)OCO3)c(=O)n2Cc1ccccc1 | inactive | –
76 | COc1cc(C=O)ccc1OCCOCCOc1cc(C)ccc1Cl | inconclusive: 8.63% | –
77 | COc1ccc2oc(C(=O)NNC(=O)c3ccc(F)cc3)c(C)c2c1 | inactive | –
78 | CC(OC(=O)CC1CC2CCC1C2)C(=O)Nc1cccc(S(=O)(=O)N2CCOCC2)c1 (stereo not drawn) | inactive | –
